The chains behind the UniProt entries cited, without tags or fusion partners.
UniProt P08483, whole entry: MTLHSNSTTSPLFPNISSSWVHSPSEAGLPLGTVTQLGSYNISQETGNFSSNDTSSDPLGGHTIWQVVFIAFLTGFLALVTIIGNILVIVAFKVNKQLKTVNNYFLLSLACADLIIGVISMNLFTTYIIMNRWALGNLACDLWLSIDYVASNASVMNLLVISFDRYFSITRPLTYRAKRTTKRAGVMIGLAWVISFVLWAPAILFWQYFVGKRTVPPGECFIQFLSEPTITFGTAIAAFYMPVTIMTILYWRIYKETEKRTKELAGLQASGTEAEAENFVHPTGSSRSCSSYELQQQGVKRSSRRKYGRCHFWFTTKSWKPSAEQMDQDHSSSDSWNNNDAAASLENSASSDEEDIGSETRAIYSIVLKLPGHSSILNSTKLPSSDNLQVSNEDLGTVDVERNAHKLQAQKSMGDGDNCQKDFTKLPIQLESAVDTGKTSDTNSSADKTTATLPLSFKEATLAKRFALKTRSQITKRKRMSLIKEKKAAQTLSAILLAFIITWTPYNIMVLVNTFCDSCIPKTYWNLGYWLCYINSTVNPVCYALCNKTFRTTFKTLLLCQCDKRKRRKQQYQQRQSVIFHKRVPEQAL

According to US5026699A, “Use of 5,11-dihydro-6H-pyrido[2,3-b][1,4]-benzodiazepin-6-ones substituted in the 11-position for treating bradycardia and bradyarrhythmia in human and veterinary medicine” (Dr. Karl Thomae GmbH, priority 1988, dated 1991):

What was measured:
[1] = target: T1, muscarinic receptors, heart (Rattus norvegicus, UniProt P10980); experiment: Receptor binding test in vitro, 3H-NMS displacement, whole heart homogenate; settings: rat whole heart homogenate 1:400; 0.3 nanomolar 3H-NMS; 30° C., 45 minutes; read-out: Receptor Binding Tests IC50, Heart
T1 construct: The whole heart was cut up with scissors; from tissue; host or cells: whole heart of male Sprague-Dawley rats, homogenate
T1 sequence (P10980 1-466): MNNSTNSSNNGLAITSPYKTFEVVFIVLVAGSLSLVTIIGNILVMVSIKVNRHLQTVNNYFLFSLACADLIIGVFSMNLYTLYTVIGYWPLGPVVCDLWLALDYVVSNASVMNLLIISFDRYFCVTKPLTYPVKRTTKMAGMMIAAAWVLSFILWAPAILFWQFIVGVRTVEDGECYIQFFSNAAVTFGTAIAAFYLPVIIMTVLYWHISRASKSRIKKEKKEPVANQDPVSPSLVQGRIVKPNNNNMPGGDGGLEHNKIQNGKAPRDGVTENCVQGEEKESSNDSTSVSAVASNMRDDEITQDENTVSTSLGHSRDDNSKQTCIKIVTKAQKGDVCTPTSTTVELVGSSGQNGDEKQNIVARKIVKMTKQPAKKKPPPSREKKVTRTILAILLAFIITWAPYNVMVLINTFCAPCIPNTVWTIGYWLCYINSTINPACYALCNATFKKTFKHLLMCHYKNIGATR
Experimental: (§1) The organs were donated by male Sprague-Dawley rats weighing 180-220 g. After the heart and submandular gland and cerebral cortex had been removed, all other steps were carried out in ice cold Hepes HCl buffer (pH 7.4; 100 millimolar NaCl, 10 millimolar MgCl2). The whole heart was cut up with scissors. All the organs were then homogenized in a Potter apparatus.
(§2) For the binding test the homogenized organs were diluted as follows:
(§3) The homogenized organs were incubated at a certain concentration of the radioligand and at a series of concentrations of the non-radioactive test substances in an Eppendorf centrifuge tube at 30° C. Incubation lasted 45 minutes. The radioligand used was 0.3 nanomolar ^3 H--N- methylscopolamine (^3 H-NMS). Incubation was ended by the addition of ice cold buffer followed by vacuum filtration. The filters were rinsed with cold buffer and their radioactivity was determined. It represents the sum of specific and non-specific binding of ^3 H-NMS. The proportion of non-specific binding was defined as the radioactivity which was bound in the presence of 1 micromolar quinuclidinylbenzylate. Each measurement was taken four times. The IC50 values of the non-labelled test substances were determined graphically. They represent that concentration of test substance at which the specific binding of ^3 H-NMS to the muscarinic receptors in the various organs was inhibited by 50%.

[2] = target: muscarinic receptors, cerebral cortex; experiment: Receptor binding test in vitro, 3H-NMS displacement, cerebral cortex homogenate; settings: rat cerebral cortex homogenate 1:3000; 0.3 nanomolar 3H-NMS; 30° C., 45 minutes; read-out: Receptor Binding Tests IC50, Cortex
Experimental: as §1, §2, §3

[3] = target: T2, muscarinic receptors, submandibular gland (Rattus norvegicus, UniProt P08483); experiment: Receptor binding test in vitro, 3H-NMS displacement, submandibular gland homogenate; settings: rat submandibular gland homogenate 1:400; 0.3 nanomolar 3H-NMS; 30° C., 45 minutes; read-out: Receptor Binding Tests IC50, Submandibular gland
T2 construct: All the organs were then homogenized in a Potter apparatus; from tissue; host or cells: submandibular gland of male Sprague-Dawley rats, homogenate
Experimental: as §1, §2, §3

## CN1CCCC1CCNCC(=O)N1c2ccccc2C(=O)Nc2cccnc21 (stereo not drawn) [A, 5,11-dihydro-11-[[[2-(1-methyl-2-pyrrolidinyl)ethyl]amino]acetyl]-6H-pyrido[2,3-b][1,4]benzodiazepin-6-one]
[1]
  IC50: 15 nM
[2]
  IC50: 100 nM
[3]
  IC50: 150 nM
